Laboratory results as given in paper PMC11952801.
No constants are given. Whether binding was seen depends on the method and setting. Binding seen in cells or lysates may run through a third protein. For some assays here: Binding can be weak; no strength is given. For some assays here: Where a sequence is shown, tags or fusion partners need not be part of it.

Assays:
[1] = target: T1, P2K1 (construct of the validation tests listed in Table 1 not told) (Arabidopsis thaliana) (UniProt Q9LSR8); experiment: split reporter; LCI assay as listed in Table 1 for candidates of the 2k KiC screen; no reference and no further description given
T1 sequence: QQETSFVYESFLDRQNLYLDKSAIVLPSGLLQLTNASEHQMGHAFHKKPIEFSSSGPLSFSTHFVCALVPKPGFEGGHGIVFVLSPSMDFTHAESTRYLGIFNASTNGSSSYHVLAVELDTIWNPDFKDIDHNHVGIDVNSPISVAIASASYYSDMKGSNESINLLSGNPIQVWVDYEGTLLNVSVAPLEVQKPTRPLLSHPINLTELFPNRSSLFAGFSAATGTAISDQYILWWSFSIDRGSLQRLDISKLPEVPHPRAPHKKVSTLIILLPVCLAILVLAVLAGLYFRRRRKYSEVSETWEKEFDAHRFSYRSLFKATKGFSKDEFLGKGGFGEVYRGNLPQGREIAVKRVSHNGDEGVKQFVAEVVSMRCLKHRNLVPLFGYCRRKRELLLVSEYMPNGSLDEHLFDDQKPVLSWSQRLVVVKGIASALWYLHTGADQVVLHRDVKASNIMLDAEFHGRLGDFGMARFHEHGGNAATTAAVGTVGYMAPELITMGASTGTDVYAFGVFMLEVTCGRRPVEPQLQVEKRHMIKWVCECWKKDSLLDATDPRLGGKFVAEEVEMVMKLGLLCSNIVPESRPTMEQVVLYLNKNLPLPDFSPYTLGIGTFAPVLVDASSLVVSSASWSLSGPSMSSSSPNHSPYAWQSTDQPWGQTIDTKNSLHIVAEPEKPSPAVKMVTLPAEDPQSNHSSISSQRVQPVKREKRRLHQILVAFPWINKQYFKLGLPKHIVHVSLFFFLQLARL

[2] = target: T2, P2K1-nLUC (Arabidopsis thaliana) (UniProt Q9LSR8); experiment: split reporter; split-luciferase complementation imaging (LCI); nLUC and cLUC fusions driven by the CaMV 35S promoter, co-infiltrated into 4-week-old N. benthamiana leaves; 3 days at 28 °C; 5 mM D-luciferin sprayed; luminescence by CCD camera; also with added ATP
T2 sequence: T1 sequence

[3] = target: T3, P2K1-nYFP (Arabidopsis thaliana) (UniProt Q9LSR8); experiment: split reporter; BiFC; nYFP and cYFP fusions in Arabidopsis protoplasts (PEG-mediated transformation), 21 °C for 24 h in the dark; YFP fluorescence by microscopy, FM4-64 as plasma membrane marker
T3 sequence: T1 sequence

[4] = target: T4, HA-tagged P2K1 (Arabidopsis thaliana) (UniProt Q9LSR8); experiment: co-IP; HA-tagged P2K1 coexpressed with Myc-tagged ILK4 or ILK5 in N. benthamiana leaves, with and without exogenous ATP; total protein extract (50 mM Tris-HCl pH 7.5, 150 mM NaCl, 0.5% Triton X-100); anti-HA agarose beads overnight at 4 °C; blots with anti-HA and anti-Myc
T4 sequence: T1 sequence

[5] = target: ILK4-cLUC (Arabidopsis thaliana); experiment: split reporter; split-luciferase complementation imaging (LCI); nLUC and cLUC fusions driven by the CaMV 35S promoter, co-infiltrated into 4-week-old N. benthamiana leaves; 3 days at 28 °C; 5 mM D-luciferin sprayed; luminescence by CCD camera; also with added ATP
[6] = target: ILK4-cYFP (Arabidopsis thaliana); experiment: split reporter; BiFC; nYFP and cYFP fusions in Arabidopsis protoplasts (PEG-mediated transformation), 21 °C for 24 h in the dark; YFP fluorescence by microscopy, FM4-64 as plasma membrane marker

“COP1-interacting protein-related (At5g43310) (Arabidopsis thaliana)” was tested, and the binding [1] was “no binding”.

For “ILK4-cLUC (Arabidopsis thaliana) (enzyme)”, the binding [2] was “binds”.

In the case of “ILK4-cYFP (Arabidopsis thaliana) (enzyme)”, the binding [3] is reported as “binds”.

For “ILK6-cYFP (Arabidopsis thaliana) (enzyme)”, the binding [3] was “no binding”.

With “LRR-RK (split-luciferase fusion) (Arabidopsis thaliana) (receptor)” the binding [2] was “no binding”.

“Myc-tagged ILK4 (Arabidopsis thaliana) (enzyme)” was tested, and the binding [4] was “binds”.

B1: MKK4 (nLUC fusion) (enzyme, UniProt O80397 1-366)
chain: MRPIQSPPGVSVPVKSRPRRRPDLTLPLPQRDVSLAVPLPLPPTSGGSGGSSGSAPSSGGSASSTNTNSSIEAKNYSDLVRGNRIGSGAGGTVYKVIHRPSSRLYALKVIYGNHEETVRRQICREIEILRDVNHPNVVKCHEMFDQNGEIQVLLEFMDKGSLEGAHVWKEQQLADLSRQILSGLAYLHSRHIVHRDIKPSNLLINSAKNVKIADFGVSRILAQTMDPCNSSVGTIAYMSPERINTDLNQGKYDGYAGDIWSLGVSILEFYLGRFPFPVSRQGDWASLMCAICMSQPPEAPATASPEFRHFISCCLQREPGKRRSAMQLLQHPFILRASPSQNRSPQNLHQLLPPPRPLSSSSSPTT
In the case of B1, the binding [5] is reported as “binds”.

B2: MKK5 (nLUC fusion) (enzyme, UniProt Q8RXG3 1-348)
chain: MKPIQSPSGVASPMKNRLRKRPDLSLPLPHRDVALAVPLPLPPPSSSSSAPASSSAISTNISAAKSLSELERVNRIGSGAGGTVYKVIHTPTSRPFALKVIYGNHEDTVRRQICREIEILRSVDHPNVVKCHDMFDHNGEIQVLLEFMDQGSLEGAHIWQEQELADLSRQILSGLAYLHRRHIVHRDIKPSNLLINSAKNVKIADFGVSRILAQTMDPCNSSVGTIAYMSPERINTDLNHGRYDGYAGDVWSLGVSILEFYLGRFPFAVSRQGDWASLMCAICMSQPPEAPATASQEFRHFVSCCLQSDPPKRWSAQQLLQHPFILKATGGPNLRQMLPPPRPLPSAS
B2 was tested, and the binding [5] was “binds”.

B3: MKK4-nYFP (enzyme, UniProt O80397 1-366)
chain: B1 chain
B3 was tested, and the binding [6] was “binds”.

B4: MKK5-nYFP (enzyme, UniProt Q8RXG3 1-348)
chain: B2 chain
For B4, the binding [6] was “binds”.

B5: MKK8-nYFP (enzyme, UniProt Q9M8J5 1-309)
chain: MVMVRDNQFLNLKLSPIQAPTTIPPCRFPIIPATKVSATVSSCASNTFSVANLDRISVLGSGNGGTVFKVKDKTTSEIYALKKVKENWDSTSLREIEILRMVNSPYVAKCHDIFQNPSGEVSILMDYMDLGSLESLRGVTEKQLALMSRQVLEGKNYLHEHKIVHRDIKPANLLRSSKEEVKIADFGVSKIVVRSLNKCNSFVGTFAYMSPERLDSEADGVTEEDKSNVYAGDIWSFGLTMLEILVGYYPMLPDQAAIVCAVCFGEPPKAPEECSDDLKSFMDCCLRKKASERWTASQLLNHPFLLHQD
For B5, the binding [6] was “no binding”.
